Reference: PubChem BioAssay AID504795 (Drosophila RNAi Screening Center, 2011)
The reagents shown are a selection, not the whole library. 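Every listed dsRNA shows some phenotype; how reagents were selected for listing is not stated.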

- Screen: 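Knock-downs causing abnormal branching, bundling, swelling or growth of cultured neurons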 (primary screen)
- Cells: primary Drosophila neurons and glia
- Reagent: long dsRNA against Drosophila genes, 250 ng dsRNA per well
- Duration: one week
- Detection: 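Descriptive morphology terms assigned by visual inspection of live automated images of GFP-marked cells, taken one week after adding 250 ng dsRNA per well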

What did the screen give for CG4362 [DRSC15567]?
phenotype seen, replicate 1: beaded; swollen axons

With Ucp4C [DRSC03132], how do the results read?
phenotype seen, replicate 1: axon bundles split apart

For Os-C [DRSC16778], what does the deposit list?
phenotype seen, replicate 1: too many neurite branches

With Rpn2 [DRSC16839], what was measured?
phenotype seen, replicate 1: sheet-like cell extensions

How did the screen score sli [DRSC07684]?
phenotype seen, replicate 1: too many neurite branches

How did the screen score lin-52 [DRSC18106]?
phenotype seen, replicate 1: reduced axon outgrowth

What did the screen give for Meics [DRSC11413]?
phenotype seen, replicate 1: axon bundles split apart

With Bka [DRSC02757], what does the deposit list?
phenotype seen, replicate 1: too many neurite branches

With CG7156 [DRSC16207], how do the results read?
phenotype seen, replicate 1: axon bundles split apart

What did the screen give for Sms [DRSC10408]?
phenotype seen, replicate 1: axon bundles split apart

For CG33702 [DRSC08986], what was measured?
phenotype seen, replicate 1: axon bundles split apart

Which result is listed for unc-13-4A [DRSC10203]?
phenotype seen, replicate 1: abnormal cell clusters

How did the screen score Dph5 [DRSC16653]?
phenotype seen, replicate 1: too many neurite branches

What is on record for RpL36A [DRSC03055]?
phenotype seen, replicate 1: axon bundles split apart

For erm [DRSC00700], what does the deposit list?
phenotype seen, replicate 1: too many neurite branches

What did the screen give for CG34396 [DRSC04245]?
phenotype seen, replicate 1: fewer cells

What is on record for CG31797 [DRSC02476]?
phenotype seen, replicate 1: axon bundles split apart

Laid out differently: entries from further up
| Target gene | DRSC id | phenotype seen, replicate 1 | phenotype seen, replicate 2 |
| --- | --- | --- | --- |
| Rpn2 | DRSC16839 | sheet-like cell extensions | – |
| sli | DRSC07684 | too many neurite branches | – |
| lin-52 | DRSC18106 | reduced axon outgrowth | – |

Next reagents follow.
Which result is listed for TfIIA-S-2 [DRSC17791]?
phenotype seen, replicate 1: axon bundles split apart

Which result is listed for pea [DRSC07120]?
phenotype seen, replicate 1: axon bundles split apart

For CG31871 [DRSC02567], what does the deposit list?
phenotype seen, replicate 1: abnormal cell clusters

What did the screen give for alpha-Man-Ic [DRSC21674]?
phenotype seen, replicate 1: too many neurite branches

With CG3847 [DRSC18327], what does the deposit list?
phenotype seen, replicate 1: abnormal cell clusters

How did the screen score Dop2R [DRSC20686]?
phenotype seen, replicate 1: abnormal cell clusters

With Grl36b [DRSC01627], what was measured?
phenotype seen, replicate 1: beaded; swollen axons

What is on record for Cyp313a5 [DRSC16628]?
phenotype seen, replicate 1: beaded; swollen axons

Which result is listed for RpS3 [DRSC16838]?
phenotype seen, replicate 1: sheet-like cell extensions

How did the screen score CG7409 [DRSC10842]?
phenotype seen, replicate 1: sheet-like cell extensions

How did the screen score CG30222 [DRSC04262]?
phenotype seen, replicate 1: fewer cells

For eIF4B [DRSC20983], what does the deposit list?
phenotype seen, replicate 1: too many neurite branches

For CG33489 [DRSC10588], what does the deposit list?
phenotype seen, replicate 1: abnormal cell clusters

With CG14883 [DRSC15007], what does the deposit list?
phenotype seen, replicate 1: axon bundles split apart

For CG30265 [DRSC21592], how do the results read?
phenotype seen, replicate 1: axon bundles split apart

For Tb [DRSC15815], what does the deposit list?
phenotype seen, replicate 1: too many neurite branches

How did the screen score CG14306 (retired record) [DRSC14785]?
phenotype seen, replicate 1: sheet-like cell extensions

What is on record for CG4907 [DRSC15673]?
phenotype seen, replicate 1: abnormal cell clusters

With Mzt1 [DRSC07979], how do the results read?
phenotype seen, replicate 1: axon bundles split apart

What is on record for CG10195 [DRSC02026]?
phenotype seen, replicate 1: abnormal cell clusters

For Drl-2 [DRSC05393], what was measured?
phenotype seen, replicate 1: reduced axon outgrowth

With Drl-2 [DRSC06858], what does the deposit list?
phenotype seen, replicate 1: abnormal cell clusters

Which result is listed for CG14109 [DRSC10112]?
phenotype seen, replicate 1: reduced axon outgrowth

How did the screen score CG7546 [DRSC08885]?
phenotype seen, replicate 1: beaded; swollen axons

What did the screen give for Cat [DRSC11110]?
phenotype seen, replicate 1: axon bundles split apart

What is on record for Act79B [DRSC11604]?
phenotype seen, replicate 1: reduced axon outgrowth

What did the screen give for EMC6 [DRSC14386]?
phenotype seen, replicate 1: too many neurite branches

For eIF3l [DRSC10530], what does the deposit list?
phenotype seen, replicate 1: reduced axon outgrowth

What is on record for RpS4 [DRSC11272]?
phenotype seen, replicate 1: abnormal cell clusters; phenotype seen, replicate 2: too many neurite branches

For CG34309 [DRSC14838], how do the results read?
phenotype seen, replicate 1: axon bundles split apart
